Laboratory results from the supplement of paper PMC10849652.
This is one part of the list.

Protein sequences, listed by entry. Tags and fused reporters are not part of them. Lines headed by an entry give the natural chain unless they say otherwise; changes in a name come on top.
UniProt Q13530: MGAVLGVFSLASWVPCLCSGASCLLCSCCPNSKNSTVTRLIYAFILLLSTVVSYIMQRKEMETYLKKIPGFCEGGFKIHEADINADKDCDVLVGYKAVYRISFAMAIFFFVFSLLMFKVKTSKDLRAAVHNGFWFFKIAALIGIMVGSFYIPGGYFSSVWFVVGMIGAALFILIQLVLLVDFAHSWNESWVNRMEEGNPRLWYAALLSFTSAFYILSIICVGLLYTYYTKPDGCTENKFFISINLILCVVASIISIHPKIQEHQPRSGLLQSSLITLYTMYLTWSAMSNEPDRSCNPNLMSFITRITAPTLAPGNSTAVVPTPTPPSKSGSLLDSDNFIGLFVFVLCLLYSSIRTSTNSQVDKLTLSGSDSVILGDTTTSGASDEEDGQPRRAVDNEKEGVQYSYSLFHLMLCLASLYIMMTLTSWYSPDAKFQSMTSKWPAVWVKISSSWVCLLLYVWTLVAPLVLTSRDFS
UniProt Q8NBJ9: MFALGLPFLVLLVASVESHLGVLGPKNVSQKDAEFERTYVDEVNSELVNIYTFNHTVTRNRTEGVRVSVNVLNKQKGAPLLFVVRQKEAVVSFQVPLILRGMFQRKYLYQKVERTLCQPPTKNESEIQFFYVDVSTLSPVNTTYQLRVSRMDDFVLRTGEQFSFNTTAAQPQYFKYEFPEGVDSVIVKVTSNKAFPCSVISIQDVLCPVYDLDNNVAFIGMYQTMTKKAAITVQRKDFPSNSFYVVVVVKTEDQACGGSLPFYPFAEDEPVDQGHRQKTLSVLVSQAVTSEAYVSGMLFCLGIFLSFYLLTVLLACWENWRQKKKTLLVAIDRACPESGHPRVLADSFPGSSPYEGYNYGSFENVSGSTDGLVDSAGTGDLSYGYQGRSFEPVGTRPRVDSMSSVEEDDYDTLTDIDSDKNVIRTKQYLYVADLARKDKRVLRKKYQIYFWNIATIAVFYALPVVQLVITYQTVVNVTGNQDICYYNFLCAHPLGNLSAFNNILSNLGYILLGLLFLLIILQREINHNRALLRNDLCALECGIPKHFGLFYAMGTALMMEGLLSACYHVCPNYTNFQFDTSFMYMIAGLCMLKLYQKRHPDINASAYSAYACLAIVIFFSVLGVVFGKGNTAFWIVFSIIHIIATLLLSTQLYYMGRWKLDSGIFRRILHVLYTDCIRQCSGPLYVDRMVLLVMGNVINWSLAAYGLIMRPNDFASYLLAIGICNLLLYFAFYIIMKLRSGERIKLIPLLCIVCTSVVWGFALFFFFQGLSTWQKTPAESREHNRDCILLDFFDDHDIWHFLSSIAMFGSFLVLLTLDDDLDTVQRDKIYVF
UniProt Q01105, whole entry, looked up: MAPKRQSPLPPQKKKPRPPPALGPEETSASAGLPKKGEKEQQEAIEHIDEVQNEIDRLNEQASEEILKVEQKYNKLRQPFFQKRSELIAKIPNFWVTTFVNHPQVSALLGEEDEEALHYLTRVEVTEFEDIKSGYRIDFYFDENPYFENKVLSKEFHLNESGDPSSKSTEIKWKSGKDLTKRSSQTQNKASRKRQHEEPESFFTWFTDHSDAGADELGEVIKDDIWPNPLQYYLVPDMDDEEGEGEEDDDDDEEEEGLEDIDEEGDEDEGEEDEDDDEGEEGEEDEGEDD
UniProt P49281: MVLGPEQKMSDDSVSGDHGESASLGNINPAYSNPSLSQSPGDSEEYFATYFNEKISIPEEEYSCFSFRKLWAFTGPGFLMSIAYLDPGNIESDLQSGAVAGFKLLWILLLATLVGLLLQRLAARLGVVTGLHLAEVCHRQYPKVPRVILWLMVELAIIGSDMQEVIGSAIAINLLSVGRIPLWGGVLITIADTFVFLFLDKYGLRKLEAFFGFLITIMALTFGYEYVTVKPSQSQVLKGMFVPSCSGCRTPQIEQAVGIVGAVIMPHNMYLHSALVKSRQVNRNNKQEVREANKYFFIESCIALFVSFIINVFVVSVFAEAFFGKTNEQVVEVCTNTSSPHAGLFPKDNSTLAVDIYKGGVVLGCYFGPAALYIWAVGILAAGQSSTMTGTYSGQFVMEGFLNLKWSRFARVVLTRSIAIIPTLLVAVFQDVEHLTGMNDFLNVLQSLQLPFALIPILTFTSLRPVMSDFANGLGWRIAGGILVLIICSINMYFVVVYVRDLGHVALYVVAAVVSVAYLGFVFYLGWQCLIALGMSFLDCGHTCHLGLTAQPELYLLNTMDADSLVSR
UniProt Q8IW75: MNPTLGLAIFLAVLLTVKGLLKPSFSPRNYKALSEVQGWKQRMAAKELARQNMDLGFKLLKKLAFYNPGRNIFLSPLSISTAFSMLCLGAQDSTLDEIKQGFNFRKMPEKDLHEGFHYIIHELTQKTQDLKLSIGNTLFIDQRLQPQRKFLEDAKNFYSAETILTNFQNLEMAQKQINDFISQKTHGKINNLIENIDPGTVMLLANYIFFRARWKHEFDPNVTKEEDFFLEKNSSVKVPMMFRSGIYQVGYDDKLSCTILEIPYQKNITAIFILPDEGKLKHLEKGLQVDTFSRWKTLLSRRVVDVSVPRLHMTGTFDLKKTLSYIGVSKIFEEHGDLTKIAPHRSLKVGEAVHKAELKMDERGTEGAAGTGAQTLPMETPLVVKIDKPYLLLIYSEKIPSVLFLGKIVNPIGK
UniProt O43765: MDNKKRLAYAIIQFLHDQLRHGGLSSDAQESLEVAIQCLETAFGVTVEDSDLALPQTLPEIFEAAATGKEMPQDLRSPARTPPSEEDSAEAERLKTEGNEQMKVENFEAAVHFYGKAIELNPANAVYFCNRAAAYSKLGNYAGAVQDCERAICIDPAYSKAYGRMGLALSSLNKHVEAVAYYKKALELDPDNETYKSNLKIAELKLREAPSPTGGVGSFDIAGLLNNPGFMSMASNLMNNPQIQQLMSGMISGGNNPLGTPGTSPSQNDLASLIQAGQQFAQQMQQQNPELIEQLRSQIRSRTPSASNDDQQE
UniProt Q8WVK7: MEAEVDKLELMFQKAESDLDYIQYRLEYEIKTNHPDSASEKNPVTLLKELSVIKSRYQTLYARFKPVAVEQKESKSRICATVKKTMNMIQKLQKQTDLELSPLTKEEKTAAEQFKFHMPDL
UniProt Q8N6T7, whole entry, looked up: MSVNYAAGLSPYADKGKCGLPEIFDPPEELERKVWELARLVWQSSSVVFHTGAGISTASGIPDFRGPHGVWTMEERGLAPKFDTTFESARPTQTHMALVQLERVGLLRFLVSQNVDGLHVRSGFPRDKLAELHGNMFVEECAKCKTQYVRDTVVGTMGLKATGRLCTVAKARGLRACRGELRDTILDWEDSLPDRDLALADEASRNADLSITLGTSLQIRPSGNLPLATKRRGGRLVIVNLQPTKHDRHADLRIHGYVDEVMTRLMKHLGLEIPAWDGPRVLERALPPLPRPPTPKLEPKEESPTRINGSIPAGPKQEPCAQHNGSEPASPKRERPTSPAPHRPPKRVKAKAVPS
UniProt P01008, whole entry, looked up: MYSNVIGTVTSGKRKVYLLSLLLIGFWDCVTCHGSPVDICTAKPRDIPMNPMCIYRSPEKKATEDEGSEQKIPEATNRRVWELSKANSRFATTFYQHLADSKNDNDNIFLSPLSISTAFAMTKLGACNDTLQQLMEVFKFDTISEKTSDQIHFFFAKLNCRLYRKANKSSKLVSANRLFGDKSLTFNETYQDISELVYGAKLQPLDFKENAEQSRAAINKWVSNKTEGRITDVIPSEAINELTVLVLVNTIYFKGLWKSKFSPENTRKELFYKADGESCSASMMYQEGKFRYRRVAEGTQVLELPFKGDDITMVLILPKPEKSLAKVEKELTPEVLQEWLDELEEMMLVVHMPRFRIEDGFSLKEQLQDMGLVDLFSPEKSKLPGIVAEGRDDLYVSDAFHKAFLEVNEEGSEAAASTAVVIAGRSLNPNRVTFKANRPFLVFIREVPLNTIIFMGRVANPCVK
UniProt Q15427: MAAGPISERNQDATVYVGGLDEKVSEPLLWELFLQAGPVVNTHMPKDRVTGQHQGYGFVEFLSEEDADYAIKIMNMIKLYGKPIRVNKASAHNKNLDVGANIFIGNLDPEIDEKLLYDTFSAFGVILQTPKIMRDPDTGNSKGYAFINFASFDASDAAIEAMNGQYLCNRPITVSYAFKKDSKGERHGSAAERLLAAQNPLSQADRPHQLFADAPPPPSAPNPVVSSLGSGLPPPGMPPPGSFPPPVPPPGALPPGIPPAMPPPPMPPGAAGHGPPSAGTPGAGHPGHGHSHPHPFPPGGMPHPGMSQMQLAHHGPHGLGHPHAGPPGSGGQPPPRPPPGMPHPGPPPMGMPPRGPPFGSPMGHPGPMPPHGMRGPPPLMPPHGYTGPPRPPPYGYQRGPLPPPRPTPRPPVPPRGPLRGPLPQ
UniProt Q9UJC5: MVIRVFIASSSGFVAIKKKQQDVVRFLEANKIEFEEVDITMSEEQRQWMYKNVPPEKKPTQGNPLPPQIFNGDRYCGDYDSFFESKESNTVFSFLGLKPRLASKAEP
UniProt P29353: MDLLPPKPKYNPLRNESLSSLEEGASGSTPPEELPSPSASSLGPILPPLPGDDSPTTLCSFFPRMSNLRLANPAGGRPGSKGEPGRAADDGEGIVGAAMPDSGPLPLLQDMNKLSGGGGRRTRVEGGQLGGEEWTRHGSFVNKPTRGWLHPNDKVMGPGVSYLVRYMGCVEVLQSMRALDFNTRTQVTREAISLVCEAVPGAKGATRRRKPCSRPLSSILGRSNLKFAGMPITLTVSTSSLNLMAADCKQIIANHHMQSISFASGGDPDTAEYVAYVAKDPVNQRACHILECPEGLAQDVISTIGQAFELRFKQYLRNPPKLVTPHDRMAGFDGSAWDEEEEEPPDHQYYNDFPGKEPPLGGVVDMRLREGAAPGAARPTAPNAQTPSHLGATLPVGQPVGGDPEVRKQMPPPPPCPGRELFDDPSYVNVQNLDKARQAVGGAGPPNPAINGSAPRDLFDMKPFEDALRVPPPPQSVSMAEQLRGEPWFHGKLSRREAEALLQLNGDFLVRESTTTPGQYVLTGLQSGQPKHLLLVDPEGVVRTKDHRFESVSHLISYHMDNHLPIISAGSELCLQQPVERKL
UniProt Q9BWJ5: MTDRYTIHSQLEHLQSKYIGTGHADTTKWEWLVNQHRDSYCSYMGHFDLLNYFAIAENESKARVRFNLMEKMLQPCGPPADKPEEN
UniProt Q9BX95: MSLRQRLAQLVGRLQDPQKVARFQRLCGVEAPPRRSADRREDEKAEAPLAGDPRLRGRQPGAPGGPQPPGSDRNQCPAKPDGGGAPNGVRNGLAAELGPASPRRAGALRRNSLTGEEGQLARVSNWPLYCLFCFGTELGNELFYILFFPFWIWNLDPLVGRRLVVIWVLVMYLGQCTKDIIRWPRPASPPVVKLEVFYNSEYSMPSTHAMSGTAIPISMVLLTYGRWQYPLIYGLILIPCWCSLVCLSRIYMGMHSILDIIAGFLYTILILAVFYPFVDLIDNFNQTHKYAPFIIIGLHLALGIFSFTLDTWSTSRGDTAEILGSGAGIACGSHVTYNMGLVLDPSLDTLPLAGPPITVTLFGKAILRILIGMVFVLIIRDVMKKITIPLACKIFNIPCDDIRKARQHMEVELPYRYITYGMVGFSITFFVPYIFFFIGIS
UniProt Q9NR46: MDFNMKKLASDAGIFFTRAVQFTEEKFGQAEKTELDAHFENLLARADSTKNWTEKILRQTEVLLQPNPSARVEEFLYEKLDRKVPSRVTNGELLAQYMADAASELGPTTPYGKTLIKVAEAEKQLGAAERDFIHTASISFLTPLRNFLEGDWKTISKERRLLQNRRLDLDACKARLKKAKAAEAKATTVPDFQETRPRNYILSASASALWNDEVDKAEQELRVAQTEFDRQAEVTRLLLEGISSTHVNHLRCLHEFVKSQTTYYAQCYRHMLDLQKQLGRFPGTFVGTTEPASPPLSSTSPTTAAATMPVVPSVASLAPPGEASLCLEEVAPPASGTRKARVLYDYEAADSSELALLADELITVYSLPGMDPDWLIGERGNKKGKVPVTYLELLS
UniProt P63208, whole entry, looked up: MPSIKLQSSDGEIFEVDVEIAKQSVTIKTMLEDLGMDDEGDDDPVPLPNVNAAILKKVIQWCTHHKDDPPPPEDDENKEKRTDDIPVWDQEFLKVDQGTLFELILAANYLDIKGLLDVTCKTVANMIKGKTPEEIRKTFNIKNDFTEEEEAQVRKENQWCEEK
UniProt P43007: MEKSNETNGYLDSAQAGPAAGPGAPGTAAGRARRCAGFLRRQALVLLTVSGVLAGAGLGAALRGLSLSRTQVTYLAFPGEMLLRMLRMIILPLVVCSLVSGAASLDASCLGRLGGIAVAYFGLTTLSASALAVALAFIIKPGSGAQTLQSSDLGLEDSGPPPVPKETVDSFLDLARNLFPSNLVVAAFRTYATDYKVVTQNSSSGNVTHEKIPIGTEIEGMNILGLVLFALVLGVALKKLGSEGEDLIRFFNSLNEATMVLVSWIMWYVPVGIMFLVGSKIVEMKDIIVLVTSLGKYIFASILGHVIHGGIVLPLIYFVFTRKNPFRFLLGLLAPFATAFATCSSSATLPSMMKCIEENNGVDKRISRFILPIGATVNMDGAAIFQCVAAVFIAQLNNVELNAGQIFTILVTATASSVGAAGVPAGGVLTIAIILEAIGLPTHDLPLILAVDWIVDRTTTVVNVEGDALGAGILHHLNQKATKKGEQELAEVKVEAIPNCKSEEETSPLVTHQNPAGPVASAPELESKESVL

Assays:
Experiment in all cases: log2 fold change, soluble protein after heating vs DMSO (PISA); higher = thermal stabilisation; K562 lysate, 10 uM; active = over 0.2 and 3.5 SD of the protein, either way, in both replicates (recomputed)
ibrutinib = compound: C=CC(=O)N1CCC[C@@H](n2nc(-c3ccc(Oc4ccccc4)cc3)c3c(N)ncnc32)C1 [ibrutinib]
Outline: (§1)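 Pellets of K562 cells were dounce-homogenised in PBS pH 7.4 with 1 mM MgCl2, and the crude extract was held at 1 mg/mL protein for a 30 min treatment with 10 μM compound. Aliquots were heated for 3 min over 48°C-58°C and pooled before NP-40 was added to 0.5% at 4°C. The supernatant from 21,000xg for 90 min was quantified by TMTpro 16plex LC-MS/MS with channel sums equalised. Values are reported from duplicates as log-two fold change in thermal stability relative to solvent controls.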

[1] = compound: CC(=O)c1cnc2ccc(-c3cc(Cl)c(O)c(Cl)c3)nc2c1N[C@H]1CC[C@H](CN(C)C)CC1
Outline: as §1

ralimetinib = compound: CC(C)(C)Cn1c(N)nc2ccc(-c3[nH]c(C(C)(C)C)nc3-c3ccc(F)cc3)nc21 [ralimetinib]
Outline: as §1

[2] = compound: CC(C)(O)CC(=O)NCCn1ccc2ncnc(Nc3ccc(Oc4cccc(C(F)(F)F)c4)c(Cl)c3)c21
Outline: as §1

[3] = compound: CC(C)C1=C2N=C(C=C(N2N=C1)NCC3=CC=CC=C3)NCCCCCCN
Outline: as §1

[4] = compound: CC1=C(C(CC(=O)N1)C2=CC=C(C=C2)C(F)(F)F)C(=O)NC3=C(C=C4C(=C3)C=NN4)F
Outline: as §1

[5] = compound: CC1=C(C2=C(C=C1)C(=O)C3=CC=CC=C3N2CCCN)C
Outline: as §1

[6] = compound: CC1=C(C=C(C=C1)NC(=O)C2=CC(=CC=C2)C(C)(C)C#N)NC3=CC4=C(C=C3)N=CN(C4=O)C
Outline: as §1

[7] = compound: CC1=C(C=C(C=C1)NC(=O)C2=CC(=CC=C2)N(C)C)NC(=O)C3=CC=C(C=C3)O
Outline: as §1

[8] = compound: CC1=CC=C(C=C1)SC2=C3C=C(SC3=CN=C2)C(=O)N
Outline: as §1

Measured: log2 fold change

SERINC3 (UniProt Q13530)
inactive: ibrutinib 0.06 | [1] -0.082 | ralimetinib 0.01 | [2] -0.003 | [3] -0.016 | [4] -0.012 | [5] -0.055 | [6] 0.049 | [7] -0.042 | [8] -0.011

SIGMAR1 (UniProt Q99720)
inactive: ibrutinib 0.022 | [1] 0.029 | ralimetinib 0.034 | [2] -0.011 | [3] -0.034 | [4] 0.047 | [5] -0.036 | [6] 0.06 | [7] -0.009 | [8] -0.004

SIDT2 isoform 2 (UniProt Q8NBJ9)
inactive: ibrutinib 0.025 | [1] 0.058 | ralimetinib 0.045 | [2] -0.019 | [3] -0.005 | [4] 0.008 | [5] 0.074 | [6] -0.014 | [7] -0.027 | [8] 0.011

SLC1A5 (UniProt Q15758)
inactive: ibrutinib 0.006 | [1] -0.002 | ralimetinib -0.021 | [2] -0.024 | [3] -0.015 | [4] -0.002 | [5] -0.009 | [6] 0.019 | [7] 0.001 | [8] -0.003

SERGEF (UniProt Q9UGK8)
inactive: ibrutinib -0.009 | [1] 0.016 | ralimetinib -0.154 | [2] 0.026 | [3] 0.01 | [4] 0.005 | [5] 0.002 | [6] -0.019 | [7] 0.058 | [8] -0.005

SET isoform 2 (UniProt Q01105)
inactive: ibrutinib -0.055 | [1] -0.001 | ralimetinib -0.027 | [2] -0.037 | [3] 0.012 | [4] -0.049 | [5] 0.014 | [6] 0.026 | [7] -0.023 | [8] -0.022

SLC11A2 isoform 3 (UniProt P49281)
inactive: ibrutinib -0.032 | [1] -0.018 | ralimetinib -0.038 | [2] -0.093 | [3] 0.017 | [4] 0.242 | [5] -0.001 | [6] 0.094 | [7] 0.001 | [8] 0.003

SLC12A6 (UniProt Q9UHW9)
inactive: ibrutinib 0.01 | [1] -0.021 | ralimetinib -0.037 | [2] -0.014 | [3] 0.011 | [4] 0.001 | [5] -0.012 | [6] 0.012 | [7] 0.024 | [8] -0.021

SF3B2 (UniProt Q13435)
inactive: ibrutinib -0.001 | [1] 0.01 | ralimetinib 0 | [2] -0.025 | [3] 0.006 | [4] -0.001 | [5] -0.046 | [6] -0.006 | [7] -0.001 | [8] 0.006

SF3A2 (UniProt Q15428)
inactive: ibrutinib 0.001 | [1] 0.005 | ralimetinib 0.022 | [2] 0 | [3] -0.002 | [4] -0.017 | [5] 0.03 | [6] -0.022 | [7] -0.011 | [8] 0.012

SETD2 (UniProt Q9BYW2)
inactive: ibrutinib 0.045 | [1] 0.002 | ralimetinib 0.021 | [2] -0.018 | [3] 0.054 | [4] 0.039 | [5] -0.036 | [6] 0.018 | [7] -0.001 | [8] 0.013

SERPINA12 (UniProt Q8IW75)
inactive: ibrutinib -0.292 | [1] -0.032 | ralimetinib -0.296 | [2] 0.976 | [3] 0.061 | [4] 0.43 | [5] 0.067 | [6] 0.145 | [7] -0.11 | [8] 0.176

Fetched one by one from the entries so far, 2 records:
SETD2 (UniProt Q9BYW2)
inactive: ibrutinib 0.045 | [1] 0.002 | ralimetinib 0.021 | [2] -0.018 | [3] 0.054 | [4] 0.039 | [5] -0.036 | [6] 0.018 | [7] -0.001 | [8] 0.013

SIGMAR1 (UniProt Q99720)
inactive: ibrutinib 0.022 | [1] 0.029 | ralimetinib 0.034 | [2] -0.011 | [3] -0.034 | [4] 0.047 | [5] -0.036 | [6] 0.06 | [7] -0.009 | [8] -0.004

Carrying on.

SGTB (UniProt Q96EQ0)
inactive: ibrutinib 0.034 | [1] 0.01 | ralimetinib -0.018 | [2] -0.002 | [3] 0.036 | [4] 0.001 | [5] 0.031 | [6] 0.026 | [7] -0.028 | [8] -0.021

SGTA (UniProt O43765)
inactive: ibrutinib 0.033 | [1] 0.004 | ralimetinib -0.018 | [2] 0.014 | [3] 0.022 | [4] -0.036 | [5] 0.016 | [6] 0.01 | [7] -0.01 | [8] -0.009

SKA2 (UniProt Q8WVK7)
inactive: ibrutinib 0.037 | [1] 0.004 | ralimetinib 0.016 | [2] -0.003 | [3] 0.014 | [4] -0.004 | [5] 0.032 | [6] -0.099 | [7] -0.011 | [8] -0.03

SIRT6 (UniProt Q8N6T7)
inactive: ibrutinib -0.05 | [1] -0.027 | ralimetinib -0.066 | [2] -0.161 | [3] 0.015 | [4] -0.043 | [5] -0.022 | [6] 0.132 | [7] 0.356 | [8] 0.244

SERPINC1 (UniProt P01008)
inactive: ibrutinib -0.075 | [1] -0.042 | ralimetinib 0 | [2] -0.079 | [3] 0.007 | [4] 0.038 | [5] 0.009 | [6] 0.013 | [7] -0.146 | [8] -0.062

SH3GL1 (UniProt Q99961)
inactive: ibrutinib -0.004 | [1] 0 | ralimetinib 0.031 | [2] 0.006 | [3] -0.015 | [4] -0.03 | [5] 0.017 | [6] 0.025 | [7] 0.006 | [8] -0.012

SKAP2 (UniProt O75563)
inactive: ibrutinib -0.003 | [1] -0.01 | ralimetinib 0.027 | [2] -0.1 | [3] 0.005 | [4] -0.03 | [5] -0.024 | [6] -0.008 | [7] -0.004 | [8] 0.029

SF3B4 (UniProt Q15427)
inactive: ibrutinib 0.003 | [1] -0.005 | ralimetinib -0.023 | [2] -0.061 | [3] -0.054 | [4] -0.033 | [5] 0.006 | [6] 0.002 | [7] 0.032 | [8] -0.031

SERPINB9 (UniProt P50453)
inactive: ibrutinib 0.038 | [1] -0.015 | ralimetinib 0.009 | [2] 0.005 | [3] -0.011 | [4] -0.019 | [5] 0.023 | [6] 0.025 | [7] -0.001 | [8] -0.016

SH3BGRL2 (UniProt Q9UJC5)
inactive: ibrutinib -0.014 | [1] 0.027 | ralimetinib 0.006 | [2] -0.014 | [3] 0.035 | [4] 0.03 | [5] -0.004 | [6] 0.036 | [7] -0.072 | [8] 0.053

SHC1 isoform 6 (UniProt P29353)
inactive: ibrutinib 0.053 | [1] -0.007 | ralimetinib -0.02 | [2] -0.041 | [3] -0.007 | [4] -0.016 | [5] -0.006 | [6] -0.004 | [7] 0.002 | [8] -0.008

SLC12A4 (UniProt Q9UP95)
inactive: ibrutinib -0.045 | [1] 0.001 | ralimetinib 0.01 | [2] 0.027 | [3] -0.019 | [4] -0.013 | [5] 0.073 | [6] 0.032 | [7] -0.012 | [8] 0.063

SHFL (UniProt Q9NUL5)
inactive: ibrutinib 0.103 | [1] -0.055 | ralimetinib -0.071 | [2] -0.066 | [3] -0.042 | [4] 0.104 | [5] 0.016 | [6] 0.071 | [7] 0 | [8] -0.055

SF3B5 (UniProt Q9BWJ5)
inactive: ibrutinib 0.027 | [1] 0 | ralimetinib 0.07 | [2] -0.014 | [3] -0.044 | [4] 0.094 | [5] 0.014 | [6] 0.041 | [7] 0.011 | [8] -0.021

SGPP1 (UniProt Q9BX95)
inactive: ibrutinib 0.026 | [1] 0.021 | ralimetinib -0.03 | [2] -0.095 | [3] 0.021 | [4] -0.028 | [5] 0.034 | [6] -0.005 | [7] 0.029 | [8] 0.016

SH3GLB2 (UniProt Q9NR46)
inactive: ibrutinib 0.011 | [1] 0.033 | ralimetinib 0.057 | [2] 0.065 | [3] 0.02 | [4] -0.001 | [5] 0.02 | [6] -0.04 | [7] -0.016 | [8] -0.008

SKP1 (UniProt P63208)
inactive: ibrutinib 0.063 | [1] -0.005 | ralimetinib -0.019 | [2] -0.002 | [3] 0.019 | [4] -0.033 | [5] 0.001 | [6] 0.02 | [7] -0.007 | [8] -0.011

SLC1A4 (UniProt P43007)
inactive: ibrutinib -0.036 | [1] -0.005 | ralimetinib -0.041 | [2] -0.064 | [3] -0.02 | [4] -0.022 | [5] -0.01 | [6] -0.016 | [7] 0.023 | [8] -0.007
